Assay results: patent publication US20050009924A1 (priority 2003, published 2005)

Assays:
[1] = system: transcriptional activity of hTERT; assay: SEAP reporter assay of hTERT expression, PhTERT-SEAP (hTERT-BJ1); format: cell-based, human
Protocol: (§1) Secreted alkaine phosphatase was used as the reporter system to monitor the transcriptional activity of hTERT. Here, about […] each were grown in 96-well plates and incubated at 37° C. for 24 h and changed with fresh media. Varying amounts of drugs were added and cells were incubated for another 24 h. Culture media were collected and heated at 65° C. for 10 min to inactivate heat-labile phosphatases. An equal amount of SEAP buffer (2 M diethanolamine, 1 mM MgCl2, and 20 mM […]) was added to the media and p-nitrophenyl phosphate was added to a final concentration of 12 mM. Absorptions at 405 nm were taken, and the rate of absorption increase is determined.
(§2) Culture media were changed every 3 days. […] The stable clones were selected using G418.

[2] = system: transcriptional activity of hTERT; assay: SEAP reporter assay of hTERT expression, PhTERT-SEAP (H1299); format: cell-based, human
Protocol: as §1, §2

## O=C1c2cccc(NCCNCCO)c2C(=O)c2cccc(NCCNCCO)c21 [IVe, 1,5-Bis[2-(2-Aminoethylamino)ethanol]anthraquinone]
[1]; 2.4 μM
  SEAP/vibility: 0.72
[1]; 24 μM
  SEAP/vibility: 0.67
[1]; 242 μM
  SEAP/vibility: 1.18
[2]; 2.4 μM
  SEAP/vibility: 0.89
[2]; 24 μM
  SEAP/vibility: 1.15
[2]; 242 μM
  SEAP/vibility: 3.77

## O=C1c2cccc(NCCO)c2C(=O)c2cccc(NCCO)c21 [IVb, 1,5-Bis(ethanolamino)anthraquinone]
[1]; 3.0 μM
  SEAP/vibility: 0.39
[1]; 30 μM
  SEAP/vibility: 0.18
[1]; 308 μM
  SEAP/vibility: 0.16
[2]; 3.0 μM
  SEAP/vibility: 0.86
[2]; 30 μM
  SEAP/vibility: 1.00
[2]; 308 μM
  SEAP/vibility: 1.08

## CCCCNc1cccc2c1C(=O)c1cccc(NCCCC)c1C2=O [IVj, 1,5-Bis(butylamino)anthraquinone]
[1]; 2.8 μM
  SEAP/vibility: 0.89
[1]; 28 μM
  SEAP/vibility: 1.04
[1]; 285 μM
  SEAP/vibility: 1.64
[2]; 2.8 μM
  SEAP/vibility: 1.04
[2]; 28 μM
  SEAP/vibility: 1.01
[2]; 285 μM
  SEAP/vibility: 1.21

## O=C1c2cccc(NCCCO)c2C(=O)c2cccc(NCCCO)c21 [IVh, 1,5-Bis(propanolamino)anthraquinone]
[1]; 2.8 μM
  SEAP/vibility: 0.57
[1]; 28 μM
  SEAP/vibility: 0.01
[1]; 282 μM
  SEAP/vibility: −0.10
[2]; 2.8 μM
  SEAP/vibility: 0.82
[2]; 28 μM
  SEAP/vibility: 1.41
[2]; 282 μM
  SEAP/vibility: 0.81

## O=C1c2cccc(NC3CCCC3)c2C(=O)c2cccc(NC3CCCC3)c21 [IVo, 1,5-Bis(cyclopentaneamino)-anthraquinone]
[1]; 2.3 μM
  SEAP/vibility: 1.00
[1]; 23 μM
  SEAP/vibility: 0.91
[1]; 238 μM
  SEAP/vibility: 1.15
[2]; 2.3 μM
  SEAP/vibility: 1.01
[2]; 23 μM
  SEAP/vibility: 1.04
[2]; 238 μM
  SEAP/vibility: 2.45

## CC(C)CNc1cccc2c1C(=O)c1cccc(NCC(C)C)c1C2=O
[1]; 2.8 μM
  SEAP/vibility: 0.20
[1]; 28 μM
  SEAP/vibility: 0.21
[1]; 285 μM
  SEAP/vibility: 0.41
[2]; 2.8 μM
  SEAP/vibility: 0.87
[2]; 28 μM
  SEAP/vibility: 0.85
[2]; 285 μM
  SEAP/vibility: 0.94

## CCNc1cccc2c1C(=O)c1cccc(NCC)c1C2=O [IVa, 1,5-Bis(ethylamino)anthraquinone]
[1]; 3.3 μM
  SEAP/vibility: 0.94
[1]; 33 μM
  SEAP/vibility: 1.00
[1]; 339 μM
  SEAP/vibility: 0.67
[2]; 3.3 μM
  SEAP/vibility: 1.01
[2]; 33 μM
  SEAP/vibility: 0.97
[2]; 339 μM
  SEAP/vibility: 0.91

## O=C1c2c(O)ccc(O)c2C(=O)c2c(NCCNCCO)ccc(NCCNCCO)c21 [Mitoxantrone, reference compound]
[1]; 1.9 μM
  SEAP/vibility: 0.40
[1]; 19 μM
  SEAP/vibility: 0.24
[1]; 193 μM
  SEAP/vibility: 0.38
[2]; 1.9 μM
  SEAP/vibility: 0.82
[2]; 19 μM
  SEAP/vibility: 1.16
[2]; 193 μM
  SEAP/vibility: 1.21

## NCCCNc1cccc2c1C(=O)c1cccc(NCCCN)c1C2=O
[1]; 2.8 μM
  SEAP/vibility: 1.22
[1]; 28 μM
  SEAP/vibility: 15.35
[1]; 283 μM
  SEAP/vibility: −28.94
[2]; 2.8 μM
  SEAP/vibility: 1.20
[2]; 28 μM
  SEAP/vibility: 1.39
[2]; 283 μM
  SEAP/vibility: 2.34

## O=C1c2cccc(NCCCCO)c2C(=O)c2cccc(NCCCCO)c21 [IVk, 1,5-Bis(butanolamino-)-anthraquinone]
[1]; 2.6 μM
  SEAP/vibility: 1.13
[1]; 26 μM
  SEAP/vibility: 1.12
[1]; 265 μM
  SEAP/vibility: 1.39
[2]; 2.6 μM
  SEAP/vibility: 0.78
[2]; 26 μM
  SEAP/vibility: 0.65
[2]; 265 μM
  SEAP/vibility: 1.65

## CN(C)CCNc1cccc2c1C(=O)c1cccc(NCCN(C)C)c1C2=O [IVd, 1,5-Bis(2-dimethylaminoethylamino)anthraquinone]
[1]; 2.6 μM
  SEAP/vibility: 0.12
[1]; 26 μM
  SEAP/vibility: −0.19
[1]; 262 μM
  SEAP/vibility: −3.77
[2]; 2.6 μM
  SEAP/vibility: 0.95
[2]; 26 μM
  SEAP/vibility: 0.67
[2]; 262 μM
  SEAP/vibility: 1.39

## CCCNc1cccc2c1C(=O)c1cccc(NCCC)c1C2=O [IVf, 1,5-Bis(propylamino)anthraquinone]
[1]; 3.1 μM
  SEAP/vibility: 0.18
[1]; 31 μM
  SEAP/vibility: 0.20
[1]; 310 μM
  SEAP/vibility: −0.16
[2]; 3.1 μM
  SEAP/vibility: 1.02
[2]; 31 μM
  SEAP/vibility: 1.03
[2]; 310 μM
  SEAP/vibility: 1.93

## O=C1c2cccc(NCCc3ccccc3)c2C(=O)c2cccc(NCCc3ccccc3)c21 [IVs, 1,5-Bis(phenylethylamino)-anthraquinone]
[1]; 2.2 μM
  SEAP/vibility: 1.18
[1]; 22 μM
  SEAP/vibility: 1.12
[1]; 223 μM
  SEAP/vibility: 1.65
[2]; 2.2 μM
  SEAP/vibility: 1.12
[2]; 22 μM
  SEAP/vibility: 1.06
[2]; 223 μM
  SEAP/vibility: 1.25

## CC(C)Nc1cccc2c1C(=O)c1cccc(NC(C)C)c1C2=O [IVc, 1,5-Bis(isopropylamino)anthraquinone]
[1]; 3.1 μM
  SEAP/vibility: 0.32
[1]; 31 μM
  SEAP/vibility: 0.25
[1]; 310 μM
  SEAP/vibility: −0.02
[2]; 3.1 μM
  SEAP/vibility: 0.82
[2]; 31 μM
  SEAP/vibility: 0.84
[2]; 310 μM
  SEAP/vibility: 1.32
